# Data as given in the supplement of paper PMC12067093, “Discovery and optimisation of a covalent ligand for TRIM25 and its application to targeted protein ubiquitination” (Chemical Science, 2025).
# Sequences of proteins named here, by UniProt entry; tags and fusion partners are left off. A change or cut given only in a name is not applied to a line headed by its entry.
# UniProt Q15910, whole entry, looked up: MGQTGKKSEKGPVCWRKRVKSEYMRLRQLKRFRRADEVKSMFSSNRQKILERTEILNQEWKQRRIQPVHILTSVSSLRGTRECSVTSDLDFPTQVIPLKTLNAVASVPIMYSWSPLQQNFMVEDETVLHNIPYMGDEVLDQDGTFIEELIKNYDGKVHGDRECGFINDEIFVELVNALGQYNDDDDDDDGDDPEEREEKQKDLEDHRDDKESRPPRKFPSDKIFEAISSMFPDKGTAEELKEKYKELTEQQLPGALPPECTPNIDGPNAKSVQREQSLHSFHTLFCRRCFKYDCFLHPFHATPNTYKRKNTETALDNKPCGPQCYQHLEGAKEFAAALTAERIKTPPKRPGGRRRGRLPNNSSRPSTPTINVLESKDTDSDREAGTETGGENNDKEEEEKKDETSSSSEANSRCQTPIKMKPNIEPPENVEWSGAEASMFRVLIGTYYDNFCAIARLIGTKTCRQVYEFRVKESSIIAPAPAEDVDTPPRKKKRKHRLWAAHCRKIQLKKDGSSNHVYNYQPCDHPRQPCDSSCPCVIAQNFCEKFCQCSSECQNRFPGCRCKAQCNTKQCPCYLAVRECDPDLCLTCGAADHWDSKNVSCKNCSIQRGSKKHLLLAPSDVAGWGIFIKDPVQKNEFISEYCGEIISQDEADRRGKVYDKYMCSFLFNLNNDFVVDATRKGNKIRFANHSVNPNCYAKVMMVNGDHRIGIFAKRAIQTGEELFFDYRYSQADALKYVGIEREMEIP
# UniProt Q01469, whole entry, looked up: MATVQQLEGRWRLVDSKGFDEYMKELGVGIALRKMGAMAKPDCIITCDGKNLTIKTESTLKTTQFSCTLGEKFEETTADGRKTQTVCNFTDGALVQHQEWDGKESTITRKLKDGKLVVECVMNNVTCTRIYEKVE
# UniProt Q96HE7: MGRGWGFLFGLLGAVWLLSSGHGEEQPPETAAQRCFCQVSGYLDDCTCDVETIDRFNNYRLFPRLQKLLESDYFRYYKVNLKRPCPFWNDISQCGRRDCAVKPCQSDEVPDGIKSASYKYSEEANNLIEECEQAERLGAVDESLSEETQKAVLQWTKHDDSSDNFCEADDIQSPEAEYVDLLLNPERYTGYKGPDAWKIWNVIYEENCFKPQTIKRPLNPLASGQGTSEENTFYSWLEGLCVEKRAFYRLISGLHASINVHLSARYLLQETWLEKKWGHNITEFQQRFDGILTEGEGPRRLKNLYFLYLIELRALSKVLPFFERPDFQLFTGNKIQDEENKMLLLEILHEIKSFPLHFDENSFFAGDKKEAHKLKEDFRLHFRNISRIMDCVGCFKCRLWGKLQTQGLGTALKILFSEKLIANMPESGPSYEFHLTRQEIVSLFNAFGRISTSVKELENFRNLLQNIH
# UniProt Q96EK7: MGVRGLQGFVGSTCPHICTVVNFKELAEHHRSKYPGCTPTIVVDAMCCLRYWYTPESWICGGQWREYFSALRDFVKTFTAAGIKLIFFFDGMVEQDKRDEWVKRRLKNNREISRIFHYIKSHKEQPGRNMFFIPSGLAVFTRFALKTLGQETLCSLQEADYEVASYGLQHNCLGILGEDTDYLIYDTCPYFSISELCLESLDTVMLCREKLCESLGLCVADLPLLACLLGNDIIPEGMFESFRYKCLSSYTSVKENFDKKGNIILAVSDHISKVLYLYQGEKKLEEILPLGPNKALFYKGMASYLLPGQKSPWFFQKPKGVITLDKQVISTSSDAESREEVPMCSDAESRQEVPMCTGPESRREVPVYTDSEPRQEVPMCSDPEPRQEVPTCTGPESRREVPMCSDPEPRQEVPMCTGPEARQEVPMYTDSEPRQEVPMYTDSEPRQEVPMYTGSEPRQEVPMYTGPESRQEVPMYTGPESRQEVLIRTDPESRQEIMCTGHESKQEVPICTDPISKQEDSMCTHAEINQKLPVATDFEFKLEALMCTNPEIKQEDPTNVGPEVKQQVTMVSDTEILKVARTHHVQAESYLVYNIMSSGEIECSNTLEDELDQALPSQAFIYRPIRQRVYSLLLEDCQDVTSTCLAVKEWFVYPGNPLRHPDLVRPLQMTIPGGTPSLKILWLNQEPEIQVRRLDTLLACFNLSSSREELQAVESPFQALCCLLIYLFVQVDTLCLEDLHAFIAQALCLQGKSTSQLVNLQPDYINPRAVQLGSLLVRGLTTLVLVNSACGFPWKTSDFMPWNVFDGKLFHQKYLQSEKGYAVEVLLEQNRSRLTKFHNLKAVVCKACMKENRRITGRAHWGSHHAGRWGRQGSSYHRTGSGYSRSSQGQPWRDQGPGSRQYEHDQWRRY
# UniProt Q96B26, whole entry, looked up: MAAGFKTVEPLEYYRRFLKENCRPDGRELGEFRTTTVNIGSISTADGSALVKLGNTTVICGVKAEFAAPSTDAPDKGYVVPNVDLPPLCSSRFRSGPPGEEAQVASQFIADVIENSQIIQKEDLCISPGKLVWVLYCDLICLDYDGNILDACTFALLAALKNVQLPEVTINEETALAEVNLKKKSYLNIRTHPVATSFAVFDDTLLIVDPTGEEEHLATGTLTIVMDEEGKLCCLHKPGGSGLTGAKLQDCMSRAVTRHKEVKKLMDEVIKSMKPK
# UniProt Q16134: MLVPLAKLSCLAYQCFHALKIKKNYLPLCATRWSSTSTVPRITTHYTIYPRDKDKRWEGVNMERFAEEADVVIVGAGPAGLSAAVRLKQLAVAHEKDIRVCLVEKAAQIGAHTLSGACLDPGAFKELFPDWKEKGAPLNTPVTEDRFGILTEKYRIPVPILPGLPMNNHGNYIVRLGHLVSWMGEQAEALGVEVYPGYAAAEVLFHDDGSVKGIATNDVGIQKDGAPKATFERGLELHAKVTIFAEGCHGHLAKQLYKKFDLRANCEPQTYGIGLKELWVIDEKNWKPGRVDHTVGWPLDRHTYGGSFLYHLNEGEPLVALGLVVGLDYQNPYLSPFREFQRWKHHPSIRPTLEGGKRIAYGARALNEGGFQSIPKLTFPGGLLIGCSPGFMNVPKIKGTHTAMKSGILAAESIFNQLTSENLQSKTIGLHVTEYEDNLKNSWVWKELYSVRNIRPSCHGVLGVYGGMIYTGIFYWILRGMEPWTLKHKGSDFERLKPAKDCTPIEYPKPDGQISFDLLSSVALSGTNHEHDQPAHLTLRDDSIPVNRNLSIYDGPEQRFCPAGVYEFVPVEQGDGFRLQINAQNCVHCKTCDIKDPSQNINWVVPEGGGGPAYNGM
# UniProt Q06265, whole entry, looked up: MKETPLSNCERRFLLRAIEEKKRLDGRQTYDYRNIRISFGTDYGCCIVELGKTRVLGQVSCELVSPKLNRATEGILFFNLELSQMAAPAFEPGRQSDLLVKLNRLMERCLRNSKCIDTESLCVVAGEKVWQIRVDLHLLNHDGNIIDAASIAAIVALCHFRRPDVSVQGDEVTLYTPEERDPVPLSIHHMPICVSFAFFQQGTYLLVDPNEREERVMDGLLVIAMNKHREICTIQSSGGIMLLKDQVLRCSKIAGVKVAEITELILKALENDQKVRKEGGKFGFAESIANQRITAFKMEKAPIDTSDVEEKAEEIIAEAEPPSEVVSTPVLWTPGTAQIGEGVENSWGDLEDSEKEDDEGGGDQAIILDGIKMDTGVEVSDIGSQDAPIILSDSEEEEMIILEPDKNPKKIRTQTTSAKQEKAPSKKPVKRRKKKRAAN
# UniProt O95571: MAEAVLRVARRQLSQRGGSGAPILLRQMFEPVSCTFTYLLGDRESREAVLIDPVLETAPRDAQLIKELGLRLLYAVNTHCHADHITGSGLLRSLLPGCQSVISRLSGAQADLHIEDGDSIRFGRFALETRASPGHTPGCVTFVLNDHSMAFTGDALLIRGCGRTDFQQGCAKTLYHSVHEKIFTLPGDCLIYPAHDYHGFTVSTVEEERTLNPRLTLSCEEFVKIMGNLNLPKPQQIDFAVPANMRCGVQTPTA
# UniProt P13804: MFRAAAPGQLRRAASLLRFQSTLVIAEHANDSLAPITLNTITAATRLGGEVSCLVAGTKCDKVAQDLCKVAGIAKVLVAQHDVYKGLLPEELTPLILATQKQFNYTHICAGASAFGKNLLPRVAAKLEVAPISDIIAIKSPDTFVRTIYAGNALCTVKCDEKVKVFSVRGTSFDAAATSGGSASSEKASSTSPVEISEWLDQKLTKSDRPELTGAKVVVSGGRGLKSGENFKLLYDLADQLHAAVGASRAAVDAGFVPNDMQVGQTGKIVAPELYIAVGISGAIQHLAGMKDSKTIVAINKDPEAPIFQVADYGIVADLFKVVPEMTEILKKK
# UniProt Q5RKV6, whole entry, looked up: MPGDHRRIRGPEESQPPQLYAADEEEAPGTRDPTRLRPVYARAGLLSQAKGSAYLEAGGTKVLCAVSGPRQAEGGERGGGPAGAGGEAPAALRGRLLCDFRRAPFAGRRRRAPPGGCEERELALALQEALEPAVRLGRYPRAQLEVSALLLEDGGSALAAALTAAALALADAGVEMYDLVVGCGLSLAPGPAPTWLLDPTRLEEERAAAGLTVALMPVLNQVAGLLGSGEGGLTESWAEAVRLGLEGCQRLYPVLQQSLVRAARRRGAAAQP
# UniProt Q6SJ93: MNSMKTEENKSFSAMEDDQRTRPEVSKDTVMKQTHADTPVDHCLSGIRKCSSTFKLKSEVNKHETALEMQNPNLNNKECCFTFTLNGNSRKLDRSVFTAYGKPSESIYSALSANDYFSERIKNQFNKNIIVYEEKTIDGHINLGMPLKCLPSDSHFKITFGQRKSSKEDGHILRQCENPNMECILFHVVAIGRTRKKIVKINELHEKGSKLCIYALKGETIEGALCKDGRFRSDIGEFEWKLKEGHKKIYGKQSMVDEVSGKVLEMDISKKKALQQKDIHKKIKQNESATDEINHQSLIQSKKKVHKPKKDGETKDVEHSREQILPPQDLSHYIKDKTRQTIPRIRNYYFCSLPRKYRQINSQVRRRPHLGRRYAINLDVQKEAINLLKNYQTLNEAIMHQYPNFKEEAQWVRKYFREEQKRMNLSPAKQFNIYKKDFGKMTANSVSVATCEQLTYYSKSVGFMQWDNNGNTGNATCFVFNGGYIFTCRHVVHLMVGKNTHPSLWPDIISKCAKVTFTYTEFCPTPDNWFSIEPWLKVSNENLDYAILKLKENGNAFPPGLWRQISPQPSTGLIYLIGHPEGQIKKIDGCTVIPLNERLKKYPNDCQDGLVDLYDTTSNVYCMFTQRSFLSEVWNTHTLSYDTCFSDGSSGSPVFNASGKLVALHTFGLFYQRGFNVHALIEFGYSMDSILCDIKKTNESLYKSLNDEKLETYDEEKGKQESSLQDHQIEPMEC
# UniProt Q96CS3: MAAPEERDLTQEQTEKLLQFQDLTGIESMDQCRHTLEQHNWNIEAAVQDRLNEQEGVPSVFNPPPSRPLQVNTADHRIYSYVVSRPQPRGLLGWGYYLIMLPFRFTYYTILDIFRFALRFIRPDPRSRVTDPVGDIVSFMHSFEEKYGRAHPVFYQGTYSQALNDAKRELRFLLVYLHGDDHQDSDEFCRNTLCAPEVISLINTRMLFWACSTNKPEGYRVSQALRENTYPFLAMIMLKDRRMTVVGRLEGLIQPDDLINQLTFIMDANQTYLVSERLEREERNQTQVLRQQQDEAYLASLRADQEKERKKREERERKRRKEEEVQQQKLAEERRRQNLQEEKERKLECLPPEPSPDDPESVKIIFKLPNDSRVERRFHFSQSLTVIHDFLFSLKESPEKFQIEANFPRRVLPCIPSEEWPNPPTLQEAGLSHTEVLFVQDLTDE
# UniProt P16930: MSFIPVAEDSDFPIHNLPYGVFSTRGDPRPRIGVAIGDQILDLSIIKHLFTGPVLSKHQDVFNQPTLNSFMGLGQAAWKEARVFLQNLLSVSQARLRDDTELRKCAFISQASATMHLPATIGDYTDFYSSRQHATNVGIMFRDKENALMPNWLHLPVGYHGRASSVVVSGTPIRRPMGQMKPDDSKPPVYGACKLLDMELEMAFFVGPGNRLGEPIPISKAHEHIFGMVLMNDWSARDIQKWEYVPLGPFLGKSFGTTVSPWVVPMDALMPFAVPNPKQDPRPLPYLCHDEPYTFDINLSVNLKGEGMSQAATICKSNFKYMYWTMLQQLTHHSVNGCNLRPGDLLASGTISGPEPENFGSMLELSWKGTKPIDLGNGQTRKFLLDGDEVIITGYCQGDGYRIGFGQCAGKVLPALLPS
# UniProt P10768: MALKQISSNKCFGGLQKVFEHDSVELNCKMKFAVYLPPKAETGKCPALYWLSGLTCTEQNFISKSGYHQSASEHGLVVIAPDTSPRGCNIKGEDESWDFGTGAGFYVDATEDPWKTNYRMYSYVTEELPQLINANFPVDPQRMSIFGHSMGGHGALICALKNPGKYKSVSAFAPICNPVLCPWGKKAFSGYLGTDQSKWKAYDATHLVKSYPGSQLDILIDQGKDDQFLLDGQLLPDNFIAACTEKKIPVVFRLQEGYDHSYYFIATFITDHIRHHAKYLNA
# Some of the results follow.
# Compound: Cc1cc(ccc1-c1ccccc1)C(=O)N1CCCN(CC1)C(=O)CCl [compound 10]
# Assay: probe-labelled cysteine peptide fold change vs DMSO (competition) (log2 fold change); higher = less target engagement (more negative = stronger competition)
# Settings: THP-1, incubation time: 4 h
# 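Further: competitive profiling in live THP-1 cells: cysteine peptides tagged with an iodoacetamide desthiobiotin (IA-DTB) probe, intensity after compound treatment relative to DMSO-treated cells.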
Target,probe-labelled cysteine peptide fold change (10 µM),probe-labelled cysteine peptide fold change (50 µM)
ESCO1_Q5FWF5_376_CILNGINSSAK (UniProt Q5FWF5),-0.0702,-0.352
EZH2_Q15910_83_ECSVTSDLDFPTQVIPLK (UniProt Q15910),0.0829,0.0211
EXOC6_Q8TAG9_532_TLSSCLLNLIR (UniProt Q8TAG9),0.197,0.348
FABP5_Q01469_47_MGAMAKPDCIITCDGK (UniProt Q01469),-0.0509,-0.447
ERO1A_Q96HE7_394_IMDCVGCFK (UniProt Q96HE7),0.0172,0.0529
FAM114A2_Q9NRY5_388_SLAELTACSIELFHK (UniProt Q9NRY5),0.16,0.23
FAM120B_Q96EK7_700_LDTLLACFNLSSSR (UniProt Q96EK7),0.24,0.346
EXOSC8_Q96B26_233+234_LCCLHKPGGSGLTGAK (UniProt Q96B26),0.0841,-0.438
ESYT1_Q9BSJ8_995_LVSIVHGCR (UniProt Q9BSJ8),-0.104,0.195
EXOC2_Q96KP1_859_LEICALR (UniProt Q96KP1),-0.0782,-0.0077
ERLIN2_O94905_128_IHHELNQFCSVHTLQEVYIELFDQIDENLK (UniProt O94905),-0.0325,0.308
ETFDH_Q16134_248_VTIFAEGCHGHLAK (UniProt Q16134),-0.102,0.159
EXOSC7_Q15024_85_PNEGYLEFFVDCSASATPEFEGR (UniProt Q15024),0.35,0.666
EXOC1_Q9NV70_304_GIEACTNAADALLQCMNVALRPGHDLLLAVK (UniProt Q9NV70),0.164,0.203
FABP5_Q01469_87_KTQTVCNFTDGALVQHQEWDGK (UniProt Q01469),0.0231,-0.281
FAF1_Q9UNN5_120_NVDVVLEDTCTVGEIK (UniProt Q9UNN5),0.0136,0.109
EXOSC9_Q06265_45+46_ISFGTDYGCCIVELGK (UniProt Q06265),0.111,-0.197
ERLIN1_O75477_310_IYFGSNIPNMFVDSSCALK (UniProt O75477),-0.286,-0.122
ETHE1_O95571_170_TDFQQGCAK (UniProt O95571),-0.118,-1.3
EZH2_Q15910_580_ECDPDLCLTCGAADHWDSK (UniProt Q15910),0.0735,-0.174
FABP5_Q01469_43_KMGAMAKPDCIITCDGK (UniProt Q01469),-0.1,-0.767

Target,probe-labelled cysteine peptide fold change (10 µM),probe-labelled cysteine peptide fold change (50 µM)
ETFA_P13804_155_TIYAGNALCTVK (UniProt P13804),0.126,-0.197
F11R_Q9Y624_74_LVCYNNK (UniProt Q9Y624),-0.135,-0.355
EXOSC6_Q5RKV6_117_RAPPGGCEERELALALQEALEPAVR (UniProt Q5RKV6),-0.569,-1.04
ESRRA_P11474_46_CLPGHKEEEDGEGAGPGEQGGGK (UniProt P11474),-0.312,-0.401
EXT2_Q93063_85_LPADSPIPERGDLSCR (UniProt Q93063),-0.0425,-0.335
FAM111B_Q6SJ93_183_QCENPNMECILFHVVAIGR (UniProt Q6SJ93),-0.0108,0.113
FAF2_Q96CS3_189_FLLVYLHGDDHQDSDEFCR (UniProt Q96CS3),0.0394,0.0993
FAM102B_Q5T8I3_254_RNTSVGSTSTGVESILEPCDEIEQK (UniProt Q5T8I3),-0.237,0.149
ESF1_Q9H501_462_IYEDCDGLEFESSCSFIDLR (UniProt Q9H501),-0.0684,0.0687
FAM120B_Q96EK7_547_LEALMCTNPEIK (UniProt Q96EK7),-0.253,0.187
EXOSC8_Q96B26_60_LGNTTVICGVK (UniProt Q96B26),0.108,0.0539
ESCO2_Q56NI9_263_CLVLEEK (UniProt Q56NI9),-0.0192,-0.162
EXOSC3_Q9NQT5_257_TIQQTLILANILEACEHMTSDQRK (UniProt Q9NQT5),-0.0341,-0.152
ERCC6L_Q2NKX8_411_LCDHPR (UniProt Q2NKX8),0.205,0.587
FAH_P16930_105_CAFISQASATMHLPATIGDYTDFYSSR (UniProt P16930),0.0468,-0.0356
FABP5_Q01469_67_TTQFSCTLGEK (UniProt Q01469),0.268,0.0805
EXOSC10_Q01780_555_IAEELPKEPQGIIACCNPVPPLVR (UniProt Q01780),-0.144,-1.17
EXOSC6_Q5RKV6_248_LGLEGCQR (UniProt Q5RKV6),-0.00681,0.0231
ERO1A_Q96HE7_99_RDCAVKPCQSDEVPDGIK (UniProt Q96HE7),-0.0958,-0.168
ERMP1_Q7Z2K6_222_DGAQHAVLANCHFDSVANSPGASDDAVSCSVMLEVLR (UniProt Q7Z2K6),0.0903,0.371
FAM129B_Q96TA1_334_AEVCVR (UniProt Q96TA1),-0.16,-0.155

Target,probe-labelled cysteine peptide fold change (10 µM),probe-labelled cysteine peptide fold change (50 µM)
FAM102B_Q5T8I3_254_NTSVGSTSTGVESILEPCDEIEQK (UniProt Q5T8I3),-0.0987,-0.086
FAM120A_Q9NZB2_919_VAAASGHCGAFSGSDSSR (UniProt Q9NZB2),-0.383,-0.344
EXOSC9_Q06265_9_ETPLSNCER (UniProt Q06265),-0.234,0.042
ETS1_P14921_237_QEVVTPDNMCMGR (UniProt P14921),-0.103,-0.276
EXD2_Q9NVH0_133_ASPLSLLQMASPSGLCVLVR (UniProt Q9NVH0),-0.275,-0.277
FAH_P16930_396_FLLDGDEVIITGYCQGDGYR (UniProt P16930),-0.176,-0.00781
ERGIC3_Q9Y282_145_HELGKVEVTVFDPDSLDPDRCESCYGAEAEDIK (UniProt Q9Y282),-0.183,-0.175
ESD_P10768_28_VFEHDSVELNCK (UniProt P10768),0.217,-0.124
FAM114A2_Q9NRY5_425_SQTLSQMTIVLCK (UniProt Q9NRY5),0.0706,0.151
EXOSC8_Q96B26_125_EDLCISPGK (UniProt Q96B26),0.496,0.605
F2_P00734_407_WVLTAAHCLLYPPWDK (UniProt P00734),-0.487,-0.615
FAM126B_Q8IXS8_7_CVVEEWLSEFK (UniProt Q8IXS8),-0.174,-0.415
FABP5_Q01469_67_TTQFSCTLGEKFEETTADGR (UniProt Q01469),0.0444,-0.639
EZR_P15311_284_ILQLCMGNHELYMRR (UniProt P15311),0.0402,0.318
EXOC2_Q96KP1_373_YLSDLHASGDPAWQCIGAQHK (UniProt Q96KP1),-0.116,-0.149
EXOC6_Q8TAG9_28_ILQEIESTDTACVGPTLR (UniProt Q8TAG9),-0.22,0.176
EXOSC10_Q01780_612_LENVLFGPHDCSHAPPDGYPIIPTSGSVPVQK (UniProt Q01780),0.124,-0.114
EWSR1_Q01844_384_QCGVVK (UniProt Q01844),0.0717,-0.0424
EXOC5_O00471_111_VCHLGDQLEGVNTPR (UniProt O00471),-0.0886,-0.158
ERO1A_Q96HE7_94_RPCPFWNDISQCGR (UniProt Q96HE7),0.0634,0.456
FAF2_Q96CS3_194_NTLCAPEVISLINTR (UniProt Q96CS3),-0.00497,0.0786

Target,probe-labelled cysteine peptide fold change (10 µM),probe-labelled cysteine peptide fold change (50 µM)
ETV6_P41212_157_ILFSPFFHPGNSIHTQPEVILHQNHEEDNCVQR (UniProt P41212),0.249,-0.091
EXOC1_Q9NV70_650_CISNQIR (UniProt Q9NV70),-0.0212,-0.257
FABP5_Q01469_127_LVVECVMNNVTCTR (UniProt Q01469),-0.0652,-0.715
ESYT2_A0FGR8_181_ACDLPAWVHFPDTERAEWLNK (UniProt A0FGR8),-0.209,-0.48
ETFA_P13804_53_LGGEVSCLVAGTK (UniProt P13804),-0.162,-0.143
EXOC7_Q9UPT5-2_285_RPGRDDMLDVETDAYIHCVSAFVK (UniProt Q9UPT5),0.0993,0.0266
FABP5_Q01469_43+47_MGAMAKPDCIITCDGK (UniProt Q01469),-0.0376,-0.51
ERO1A_Q96HE7_208_IWNVIYEENCFKPQTIK (UniProt Q96HE7),-0.146,0.192
ERP29_P30040_157_GQGVYLGMPGCLPVYDALAGEFIR (UniProt P30040),0.0186,-0.0623
ERGIC3_Q9Y282_159_CCNTCEDVR (UniProt Q9Y282),-0.433,-0.098
EXOC6_Q8TAG9_66_MCNFHHQGFVDAITELLK (UniProt Q8TAG9),0.0644,-0.864
ETF1_P62495_335_YVLHCQGTEEEK (UniProt P62495),0.0286,0.0462
EXOSC5_Q9NQT4_33_HFACEQNLLSRPDGSASFLQGDTSVLAGVYGPAEVK (UniProt Q9NQT4),-0.0294,0.228
ETHE1_O95571_219_LTLSCEEFVK (UniProt O95571),-0.0882,-0.0389
ERO1A_Q96HE7_85_RPCPFWNDISQCGR (UniProt Q96HE7),-0.0936,0.243
FAM111A_Q96PZ2_36_EQQNNCSTSLMR (UniProt Q96PZ2),-0.0916,0.38
ESD_P10768_45_CPALYWLSGLTCTEQNFISK (UniProt P10768),-0.229,-0.18
EXOSC6_Q5RKV6_117_APPGGCEERELALALQEALEPAVR (UniProt Q5RKV6),-0.5,-1.49
FAM111B_Q6SJ93_351_NYYFCSLPR (UniProt Q6SJ93),-0.123,-0.127
ETFDH_Q16134_266_ANCEPQTYGIGLK (UniProt Q16134),0.0188,0.134
